Measured values from PubChem BioAssay AID1347075 (National Center for Advancing Translational Sciences (NCATS), 2019).
Out of some 400,000 compounds screened, about 5,500 (1.4%) were called active. Inconclusive results, whose numbers are uncertain, are shown with a selection of clear calls. Calls follow the shape of the dose curve; as a rule, active = well fitted cell-killing curve with a large enough effect; inconclusive = small, poorly fitted or top-dose-only effect, or effect the other way; inactive = flat fitted curve, though single readings scatter. Potencies beside an inconclusive call are fits to weak or partial responses and may not hold up. Where a structure was tested more than once in an assay, its records may differ in their call.

test: qHTS assay for MDR1-selective chemotherapeutics: Primary screen using the parental adenocarcinoma cell KB-3-1; conditions: KB-3-1 viability, CellTiter-Glo ATP luminescence, 72 h; activity change, negative = cytotoxic: at 46.1 µM (top of the series); also: nearly all actives have a fitted effect of over 60% in size
Method in brief: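 Parental KB-3-1 adenocarcinoma cells in phenol-red-free DMEM with 10% FBS were pin-treated with compounds at several concentrations, incubated 72 h at 37 °C, and viability read by CellTiter-Glo luminescence; concentration-effect curves were fitted after normalization.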
% is scaled to controls: 0 for no effect and ±100 for the full control effect; potency is read from the fitted curve at half-maximal effect.

Compound | Potency | activity change, negative = cytotoxic
CCCCCCc1nc2ccccc2c(=O)n1NC(=O)c1c(O)c2c(n(CC(C)C)c1=O)CCCC2 | active: 20.6 µM | 
O=C(Cc1c(F)cccc1Cl)Nc1cc(S(=O)(=O)N2CCOCC2)ccc1N1CCCC1 | inconclusive: 4.61 µM [cytotoxic, full curve, poor fit] | 
COc1ccc(-c2cc(C(=O)Nc3ccc(C)c(N)c3)c3ccccc3n2)cc1 | inconclusive: 29.1 µM [cytotoxic, partial curve, poor fit] | 
CC(C)CCNC(=O)NC(=O)COC(=O)C1CCN(S(=O)(=O)c2ccccc2F)CC1 |  | inconclusive: 32.2%
Nc1ccc(C(=O)N/N=C2\CCCc3c2[nH]c2ccccc32)cc1 | inconclusive: 29.1 µM [cytotoxic, single point] | 
Cc1noc(C)c1C(=O)N1CCC1(C)C(=O)NS(=O)(=O)c1ccccc1C(F)(F)F (stereo unspecified) | inactive | 
COc1cc(C2c3cc4c(cc3OC(N3CCCC3)C2C)OCO4)cc(OC)c1O (stereo unspecified) | inconclusive: 29.1 µM [cytotoxic, single point] | 
COCCOC(=O)c1[nH]c2c(c1C)C(=O)CC(c1ccccc1)C2 (stereo unspecified) | active: 0.92 µM | 
Cc1cccc(N/C=C/c2onc(C)c2[N+](=O)[O-])c1 | inconclusive: 23.1 µM [cytotoxic, single point] | 
O=C(Nc1ccc2c(c1)OCCO2)c1ccc(Cl)c(S(=O)(=O)N2CCCCC2)c1 | inconclusive: 29.1 µM [cytotoxic, single point] | 
Nc1cccc(CCc2nc3cc4ccccc4cc3[nH]2)c1 | active: 5.17 µM | 
Cc1noc(C)c1-c1ccc(C(=O)NCc2ccccc2)c2occc12 | inconclusive: 18.4 µM [cytotoxic, partial curve] | 
O=C(N/N=C/c1ccccc1)c1[nH]c2ccc(Br)cc2c1-c1ccccc1 | active: 0.731 µM | 
Cc1cccc(C)c1NS(=O)(=O)c1ccc(-c2cnc(C3CC3)o2)cc1 | active: 0.0231 µM | 
COc1ccc(NS(=O)(=O)c2ccc(NC(=O)c3ccc(CN4CCOCC4)cc3)cc2)cc1 | inconclusive: 8.2 µM [cytotoxic, partial curve, poor fit] | 
COC(=O)c1ccc2c(=O)n(Cc3ccco3)c(SCC(=O)Nc3ccc(C)c(Cl)c3)nc2c1 | inconclusive: 14.6 µM [cytotoxic, partial curve, poor fit] | 
CCOC(=O)c1ccc(NC(=O)CC2C(=O)N(c3ccc(F)cc3)C(=O)N2CCC(C)C)cc1 (stereo unspecified) | active: 20.6 µM | 
Cc1ccc(C(=O)NCCN2CCC(n3c(=O)[nH]c4ccccc43)CC2)cc1 |  | inconclusive: 7.03%
CC(Oc1ccccc1F)C(=O)/C=C/N(C)C (stereo unspecified) | inactive | 
COc1cc(/C=N/N(C)c2ccccc2)cc(Cl)c1O | inconclusive: 23.1 µM [cytotoxic, single point] | 
CCCCCc1ccc(-c2cn(Cc3ccc(C(=O)c4ccccc4)cc3)nn2)cc1 | active: 7.31 µM | 
Cc1ccc(/C=N/NC(=O)CSc2nc3ccccc3c(=O)n2-c2ccccc2C)s1 | inconclusive: 29.1 µM [cytotoxic, single point] | 
O=C(N/N=C/c1cccnc1)c1cc(O)c(O)c(O)c1 | inactive | 
COC(=O)[C@]12CCCCC=C1N(Cc1ccc(Cl)cc1Cl)C(=O)[C@H](CC(=O)NCC1CCCCC1)C2 | inconclusive: 16.4 µM [cytotoxic, single point] | 

Compound | Potency | activity change, negative = cytotoxic
COCCNc1nc2cc(-c3ccc(F)cc3)sc2c(=O)n1C | inactive | 
C[C@H](CO)N1C[C@H](C)[C@@H](CN(C)Cc2ccncc2)Oc2c(NS(=O)(=O)c3ccccc3)cccc2C1=O | inactive | 
Cc1ccc(NC(=O)Nc2nnc(-c3ccncc3)s2)cc1 | inconclusive: 29.1 µM [cytotoxic, single point] | 
CN(c1ccccc1)S(=O)(=O)c1ccc(Cl)c(C(=O)NC2=NCCS2)c1 | inconclusive: 32.6 µM [cytotoxic, single point] | 
O=C(CSc1ccsc1[N+](=O)[O-])N1CCN(c2ccc(Cl)cc2)CC1 | inactive | 
Oc1ccc(-c2nc(-c3ccc(F)cc3)c(-c3ccncc3)[nH]2)cc1 | inconclusive: 11.6 µM [cytotoxic, partial curve, poor fit] | 
O=C(NCC(=O)N1CCN(c2ccccc2F)CC1)c1ccco1 | inconclusive: 4.61 µM [rising, partial curve, poor fit] | 
CCOc1ccc(CN2CCN(Cc3nc(C(C)C)cs3)CC2CCO)cc1 (stereo unspecified) | inactive | 
Cc1ccnc(SCC(=O)c2ccc(Br)cc2)c1C#N |  | inconclusive: -35.8% [cytotoxic]
COc1ccc2c(ccn2S(=O)(=O)c2ccccc2)c1 | inactive | 
O=C(N/N=C/c1cc(Cl)cc([N+](=O)[O-])c1O)NC12CC3CC(CC(C3)C1)C2 | inconclusive: 29.1 µM [cytotoxic, single point] | 
Cc1ccc(NC(=S)N=Nc2c(O)n(C)c3ccc(S(=O)(=O)N4CCOCC4)cc23)cc1C | inconclusive: 2.59 µM [cytotoxic, full curve] | 
OC12CCCCC1C(c1ccc3c(c1)OCO3)N(Cc1cccc(F)c1)CC2 (stereo unspecified) | inconclusive: 29.1 µM [cytotoxic, single point] | 
CCC1CSC(Nc2ccc(C(=O)/C=C/c3ccc(Oc4ccccc4)cc3)cc2)=N1 (stereo unspecified) | inconclusive: 20.6 µM [cytotoxic, single point] | 
Cc1nn(C(C)(C)C)c(NC(=O)c2ccccc2)c1C#N | inactive | 
COc1ccc(OC)c2[nH]c(=O)c(CCNC(=O)c3ccc(S(=O)(=O)N(C)C)cc3)cc12 | inactive | 
COc1ccccc1NC(=O)c1cc2cc(Br)ccc2cc1O | active: 18.4 µM | 
Cc1cc(C)cc(OCC(=O)Nc2cccc(S(=O)(=O)NC3=NCCC3)c2)c1 | inconclusive: 16.4 µM [cytotoxic, single point] | 
CC12CNCC(C)(CN(C(c3ccccc3)c3ccccc3)C1)C2 | inconclusive: 20.6 µM [cytotoxic, single point] | 
CCN(CC)CCCNc1nc2cc(OC)c(OC)cc2c2nc(-c3ccccc3)nn12 | active: 23.1 µM | 
Cc1ccc2nc(C)cc(Nc3ccc4c(c3)OCCO4)c2c1 | inconclusive: 14.1 µM [cytotoxic, single point] | 
Cc1ccc(CNS(=O)(=O)c2ccc(N3CCCCS3(=O)=O)cc2)cc1 | inconclusive: 16.4 µM [cytotoxic, partial curve] | 
O=c1[nH]c2cc([N+](=O)[O-])ccc2c2ccccc12 | inactive | 
CC(C)C[C@H](NC(=O)c1[nH]cnc1C(=O)N[C@H](C)c1ccccc1)C(=O)OC(C)(C)C | inconclusive: 29.1 µM [cytotoxic, single point] | 

3 structures out of the list, sorted by number of heavy atoms, low to high:
Compound | Potency | activity change, negative = cytotoxic
O=c1[nH]c2cc([N+](=O)[O-])ccc2c2ccccc12 | inactive | 
CCC1CSC(Nc2ccc(C(=O)/C=C/c3ccc(Oc4ccccc4)cc3)cc2)=N1 (stereo unspecified) | inconclusive: 20.6 µM [cytotoxic, single point] | 
C[C@H](CO)N1C[C@H](C)[C@@H](CN(C)Cc2ccncc2)Oc2c(NS(=O)(=O)c3ccccc3)cccc2C1=O | inactive | 

Carrying on:

Compound | Potency | activity change, negative = cytotoxic
COc1ccc(/C=N/NC(=O)CSCC(=O)Nc2ccccc2)cc1OC | inactive | 
COc1ccc(NC(=O)Nc2cccc3c2O[C@H](CN(C)S(=O)(=O)c2ccc(F)cc2)[C@@H](C)CN([C@H](C)CO)C3=O)cc1 | inconclusive: 0.0046 µM [rising, full curve, poor fit] | 
O=C(Nc1c(F)c(F)c(F)c(F)c1F)NC1CCCCC1 | inactive | 
COc1cc(C(=O)Nc2ccc(NC(C)=O)cc2)ccc1OCc1ccccc1 |  | inconclusive: -14%
CCCc1ccc(C2C3=C(CC(C)(C)CC3=O)NC3=C2C(=O)c2ccccc23)cc1 (stereo unspecified) | inconclusive: 32.6 µM [cytotoxic, single point] | 
CC(=O)N1CCN(S(=O)(=O)c2cccc(C(=O)OCN3C(=O)c4ccccc4C3=O)c2)CC1 | inactive | 
Cc1cccc(C)c1NC(=O)C1(C)CSCC(=O)N1CCCn1ccnc1 (stereo unspecified) | inactive | 
CCCCCCSc1ccc(-c2nc3cc(C)ccn3c2NC2CCCCC2)cc1 | inconclusive: 20.6 µM [cytotoxic, single point] | 
CC(=O)C(Cc1ccccc1)NC(=O)CCl (stereo unspecified) | inconclusive: 29.1 µM [cytotoxic, single point] | 
O=C(NCCc1c[nH]c2ccccc12)C(=O)NCC1OCCN1S(=O)(=O)c1cc(F)ccc1F (stereo unspecified) | inactive | 
Cc1cccc(NC(=O)CCN2C(=O)c3ccccc3S2(=O)=O)c1C | inactive | 
CCOc1ccc(C(C)=O)cc1CSC(=N)N | inactive | 
Cc1ccc(NC(=O)Cn2cc(C(F)(F)F)cc(Cl)c2=O)cc1Cl | inactive | 
CCOc1ccc(NC(=O)Cn2c(=O)n(CCc3ccccc3)c(=O)c3c4c(sc32)CCCC4)cc1 | inactive | 
O=C(CCCCCn1c(=S)[nH]c2cc3c(cc2c1=O)OCO3)N1CCN(C2CCCCC2)CC1 | inactive | 
Cc1ccc(NC(=O)CC2Oc3ccc(C)cc3NC2=O)c(C)c1 (stereo unspecified) | inconclusive: 29.1 µM [cytotoxic, single point] | 
COc1ccc(C(C)=O)cc1CN1C(=O)NC(c2ccccc2)(c2ccccc2)C1=O | inactive | 
COc1ccc(Cl)cc1NC(=O)COC(=O)C1CC1 | inconclusive: 32.6 µM [cytotoxic, single point] | 
CC(=O)c1ccc(S(=O)(=O)N2CCN(CC(=O)NC(=O)NC3CCCCC3)CC2)cc1 | inactive | 
Cc1cc(N/N=C/c2ccc(O)cc2O)nc(-c2ccccc2O)n1 | inconclusive: 29.1 µM [cytotoxic, single point] | 
CCOC(=O)C1=C(CN2CCN(c3ccc(Cl)cc3)CC2)NC(=O)NC1c1ccc(OC)cc1 (stereo unspecified) | inconclusive: 14.6 µM [cytotoxic, partial curve, poor fit] | 
COc1ccc2[nH]c(C(=O)N/N=C/c3ccccc3OC)cc2c1 | inconclusive: 20.6 µM [cytotoxic, single point] | 
C1CCN(Cc2nnnn2CC2CCCO2)CC1 (stereo unspecified) | inconclusive: 0.184 µM [rising, full curve] | 

A stretch of the results above, for reference:
Compound | Potency | activity change, negative = cytotoxic
CC(=O)N1CCN(S(=O)(=O)c2cccc(C(=O)OCN3C(=O)c4ccccc4C3=O)c2)CC1 | inactive | 
Cc1cccc(C)c1NC(=O)C1(C)CSCC(=O)N1CCCn1ccnc1 (stereo unspecified) | inactive | 
